Measurements from “University of Dundee, Small-Polar-MMV Screening Library” (2021), ChEMBL document CHEMBL3988442.

By UniProt entry, the sequences of proteins in these tests, tags left out. Residues count along the entry.
UniProt A4I591, 1-473: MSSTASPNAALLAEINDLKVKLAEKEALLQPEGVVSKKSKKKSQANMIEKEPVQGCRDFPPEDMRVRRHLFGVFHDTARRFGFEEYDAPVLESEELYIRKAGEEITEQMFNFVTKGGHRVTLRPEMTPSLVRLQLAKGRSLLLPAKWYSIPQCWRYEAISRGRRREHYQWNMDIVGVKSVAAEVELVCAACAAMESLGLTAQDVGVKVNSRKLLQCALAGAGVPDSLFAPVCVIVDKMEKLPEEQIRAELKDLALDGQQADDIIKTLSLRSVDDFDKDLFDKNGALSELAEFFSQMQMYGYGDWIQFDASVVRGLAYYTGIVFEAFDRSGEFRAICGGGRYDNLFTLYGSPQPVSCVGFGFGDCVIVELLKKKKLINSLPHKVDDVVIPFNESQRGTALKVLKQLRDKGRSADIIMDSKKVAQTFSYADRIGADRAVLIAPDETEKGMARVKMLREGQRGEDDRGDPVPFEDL

The filed quantity is “Percent Effect” (%). The controls that fix the scale are not given in the record; negative values are as filed. The compounds are a random part of those screened.

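Histidine-tRNA ligase, Leishmania infantum (UniProt A4I591). Enzyme assay of histidyl-tRNA synthetase; the read-out is not stated. Concentration: 30 µM. The record gives no direction; compounds that gave an IC50 in retests scored well above the rest, so higher reads as stronger inhibition. The assay is labelled LdHisRS but filed under L. infantum. About 69,000 compounds were tested under these conditions; 0.6% (about 410) showed 50% or more at least once.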

CN(C)c1cc(CNC(=O)Nc2ccc(C#N)cc2)ccn1 gave 13.89%. Result for Cn1ccnc1CN1CCN(CC(O)c2ccccc2)CC1 (centres undefined) was 14.68%. For CN(C)C(=O)CO[C@H]1CN(Cc2nccs2)[C@@H]2COC[C@H]12 the result was 9.91%. COc1ccc(CN2CCO[C@H]3[C@H](OCCN4CCCC4)CC[C@@H]32)cc1 read 0%.

CS(=O)(=O)CCn1ccc(NC(=O)Cc2c[nH]c3ccccc23)n1 gave 14.61%. COCCOCC(=O)NC(C#N)c1ccccc1C (centres undefined) read 17.02%. CCc1nnsc1C(=O)NCCc1nnc2n1CCC2 read 21.43%. c1cnc(N2CCCC3(CCN(CC4CC4)C3)C2)nc1 (centres undefined) gave 14.71%.

CCCn1cc(NC(=O)c2ccc(S(C)(=O)=O)cc2)ccc1=O read 94.59%. Cc1noc(C)c1CN(C)c1ncnc2ccccc12 read 13.7%. With Cc1cc(CCC(=O)N2CCOCC2)ccc1Br the screen gave 16.44%. Cc1ccc2nc(CNCCCN3CCCC3=O)cc(O)c2c1 gave 20.35%.

c1cnc(N2CC3(CCN(Cc4ccncc4)C3)C2)nc1 gave 21.1%. Result for CC(Cc1cccc(F)c1)C(=O)NS(=O)(=O)c1ccc2c(c1)OCCO2 (centres undefined) was 0%. For Cc1cc(C)nc(Nc2cccc(C3CCCN(C)C3)n2)n1 (centres undefined) the result was 16.67%. CCCN1CCN(C(=O)c2cnccn2)[C@H]2CS(=O)(=O)C[C@H]21 gave 13.46%.

With CN(Cc1ccc(N(C)C)cc1)C(=O)CS(=O)(=O)c1ccc(Cl)cc1 the screen gave 15.07%. Cn1ccc(C(=O)N(CC(F)(F)F)c2cccc(Cl)c2)cc1=O gave 1.709%. With CS(=O)(=O)N1Cc2nccn2CC(CN2CCCC2=O)C1 (centres undefined) the screen gave 15.04%. CN(C)CCNC(=O)c1cc(-c2cnc(N3CCOCC3)nc2)cn1C read 24%.

N#Cc1cccnc1OC1CCN(S(=O)(=O)c2ccc(F)c(Cl)c2)CC1 read 19.51%. CCn1cc(N2Cc3nc(N4CCCC4)ncc3C2=O)cn1 read 8.621%. CCNC(=O)C1(Cc2ccc(-c3ccccc3)cc2)CCCNC1 (centres undefined) gave 4.255%. For CC1c2ncc(Cn3cncn3)n2CCN1C(=O)C1CCOCC1 (centres undefined) the result was 18.87%.

For CC(C)N(C)S(=O)(=O)N1CCN(Cc2ccco2)CC1 the result was 10%. With NC(=O)c1cnn2c1NCC(CNCCCc1ccccc1)C2 (centres undefined) the screen gave 16.07%. For O=C(c1cnccn1)N1C[C@@H]2CC[C@H](C1)N(C(=O)Cc1ccsc1)C2 the result was 12.26%. COc1ccccc1-n1nc(C(C)C)nc1Cc1nnc(N)s1 read 12.59%.

Cc1cccc(CN2CCc3onc(CO)c3C2)n1 gave 13.21%. Cc1ccsc1C(Cn1ccnc1-c1ccccc1C(=O)O)N(C)C (centres undefined) gave 16.39%. O=C(CCn1cccn1)N1CCC(c2nnc(-c3ccccn3)o2)CC1 read 2.817%. With Cc1cnccc1-c1cnn(CCNC(=O)c2ccncc2)c1C1CC1 the screen gave -1.418%.

With CCN(C(=O)NCc1ncc(C)c(OC)c1C)C(C)c1cccnc1 (centres undefined) the screen gave 6.452%. With CCC(C)NC(=O)Cn1ccc2sc(C)cc2c1=O (centres undefined) the screen gave -4.494%. Cc1ncnc(NCC(C)N(C)c2ccccc2)c1C (centres undefined) gave 19.35%. For CN(C)c1cc(C(=O)N2CCCCC2CNS(C)(=O)=O)ccn1 (centres undefined) the result was 15.04%.

For Fc1ccc(-c2nnc(CN3CCOC(Cn4cncn4)C3)o2)cc1 (centres undefined) the result was 2.74%. For O=C(Cc1cc(F)cc(Cl)c1)N[C@@H]1CCNC[C@H]1O the result was 18.31%. For O=C(CN1CCN(C(=O)c2ccccc2)CC1)Nc1ncc(Br)cc1Br the result was 10.11%. CCS(=O)(=O)c1ncc(CN(C)Cc2cccc(OC)c2)n1CCOC gave 2.4%.

With Cc1nnc([C@]23COC[C@H]2CN(Cc2nccs2)C3)o1 the screen gave 3.419%. With NC(=O)CC1CCCCN1C(=O)c1ccc2cc[nH]c2c1 (centres undefined) the screen gave 15%. Result for CCc1nccn1C1CCCN(C(=O)CCCNc2ncccn2)C1 (centres undefined) was 13.51%. With O=C(c1cnccn1)N1CC[C@H]2C[C@@H](c3ccncn3)O[C@@H]2C1 the screen gave 0%.

O=C(Cc1ccc(F)cc1)NCCNS(=O)(=O)c1ccc(F)c(F)c1 read 11.69%. Cn1cc(CN2CCc3c(COCc4ccncc4)cncc3C2)cn1 read 31.51%. CC(C)c1nnc(N2C[C@@H](CN(C)CCO)[C@@H](CO)C2)s1 gave -3.333%.

For reference, 4 entries once more:

compound	Percent Effect
CC1c2ncc(Cn3cncn3)n2CCN1C(=O)C1CCOCC1 (centres undefined)	18.87
CN(C)CCNC(=O)c1cc(-c2cnc(N3CCOCC3)nc2)cn1C	24
NC(=O)c1cnn2c1NCC(CNCCCc1ccccc1)C2 (centres undefined)	16.07
COCCOCC(=O)NC(C#N)c1ccccc1C (centres undefined)	17.02